No constants are given. Whether binding was seen depends on the method and setting. Tags and fused reporters may be left off the sequences shown.
How the values were obtained:
[1] = biological target: GST-SIRT1 amino (N)-terminal domain (human); assay: pull-down; GST-SIRT1 deletion mutants (100–200 ng) bound on GS4B beads, purified OGT (300 ng), overnight at 4 °C, washed three times with NP40 lysis buffer; both purified
[2] = biological target: GST-SIRT1 central core domain (human); assay: as above

B1: MBP-fused OGT (enzyme, UniProt O15294 1-1046)
chain: MASSVGNVADSTEPTKRMLSFQGLAELAHREYQAGDFEAAERHCMQLWRQEPDNTGVLLLLSSIHFQCRRLDRSAHFSTLAIKQNPLLAEAYSNLGNVYKERGQLQEAIEHYRHALRLKPDFIDGYINLAAALVAAGDMEGAVQAYVSALQYNPDLYCVRSDLGNLLKALGRLEEAKACYLKAIETQPNFAVAWSNLGCVFNAQGEIWLAIHHFEKAVTLDPNFLDAYINLGNVLKEARIFDRAVAAYLRALSLSPNHAVVHGNLACVYYEQGLIDLAIDTYRRAIELQPHFPDAYCNLANALKEKGSVAEAEDCYNTALRLCPTHADSLNNLANIKREQGNIEEAVRLYRKALEVFPEFAAAHSNLASVLQQQGKLQEALMHYKEAIRISPTFADAYSNMGNTLKEMQDVQGALQCYTRAIQINPAFADAHSNLASIHKDSGNIPEAIASYRTALKLKPDFPDAYCNLAHCLQIVCDWTDYDERMKKLVSIVADQLEKNRLPSVHPHHSMLYPLSHGFRKAIAERHGNLCLDKINVLHKPPYEHPKDLKLSDGRLRVGYVSSDFGNHPTSHLMQSIPGMHNPDKFEVFCYALSPDDGTNFRVKVMAEANHFIDLSQIPCNGKAADRIHQDGIHILVNMNGYTKGARNELFALRPAPIQAMWLGYPGTSGALFMDYIITDQETSPAEVAEQYSEKLAYMPHTFFIGDHANMFPHLKKKAVIDFKSNGHIYDNRIVLNGIDLKAFLDSLPDVKIVKMKCPDGGDNADSSNTALNMPVIPMNTIAEAVIEMINRGQIQITINGFSISNGLATTQINNKAATGEEVPRTIIVTTRSQYGLPEDAIVYCNFNQLYKIDPSTLQMWANILKRVPNSVLWLLRFPAVGEPNIQQYAQNMGLPQNRIIFSPVAPKEEHVRRGQLADVCLDTPLCNGHTTGMDVLWAGTPMVTMPGETLASRVAASQLTCLGCLELIAKNRQEYEDIAVKLGTDLEYLKKVRGKVWKQRISSPLFNTKQYTMELERLYLQMWEHYAAGNKPDHMIKPVEVTESA
For B1, which binding [1] is on record?
The binding was “no binding (tested: 300 ng purified protein)”.

And the binding [2]?
Its binding is “no binding (tested: 300 ng purified protein)”.

Reference: article PMC5684413
